From PubChem BioAssay AID1347076 (National Center for Advancing Translational Sciences (NCATS), 2019)
Among all 400,000 compounds or so, about 13,000 (3.2%) were called active. Inconclusive results, whose numbers are uncertain, are shown with a selection of clear calls. Calls follow the shape of the dose curve; as a rule, active = well fitted cell-killing curve with a large enough effect; inconclusive = small, poorly fitted or top-dose-only effect, or effect the other way; inactive = flat fitted curve, though single readings scatter. Potencies beside an inconclusive call are fits to weak or partial responses and may not hold up.
% is scaled to controls: 0 for no effect and ±100 for the full control effect; potency is read from the fitted curve at half-maximal effect.

Test: qHTS assay for MDR1-selective chemotherapeutics: Primary screen using the drug-selected MDR subline cells KB-V1; also: nearly all actives have a fitted effect of over 60% in size
Details: KB-V1 MDR cells viability, CellTiter-Glo, 72 h; activity change, negative = cytotoxicity: at 46.1 µM (top of the series)
Outline: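 Compound-treated KB-V1 multidrug-resistant cells, 72 h, 37 degrees C; viability by CellTiter-Glo. Fitted qHTS curves give the values.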
With `CN(C)S(=O)(=O)c1cccc(NC(=O)COC(=O)c2cn(-c3ccccc3)nc2-c2ccccc2)c1` the Potency was inconclusive: 9.2 µM [cytotoxic, partial curve].
In the case of `COc1ccc(C(=O)N/N=C/c2cc(Br)ccc2O)cc1OC`, the Potency is reported as active: 20.6 µM.
For `COc1ccccc1-c1cccc(-c2nc(C(=O)Nc3nccs3)cc3c2[C@@H](CCO)N(C(C)=O)C3)c1`, the Potency was inconclusive: 29.1 µM [cytotoxic, single point].
In the case of `COc1cc([N+](=O)[O-])cc(/C=N/NC(=O)c2cncc(Br)c2)c1O`, the Potency is reported as inconclusive: 23.1 µM [cytotoxic, single point].
With `Clc1ccc(Cn2nnc(-c3ccc(CN4CCOCC4)cc3)n2)cc1` the Potency was inconclusive: 18.4 µM [cytotoxic, partial curve].
In the case of `CC(C)(O)CN(CCCNC(=S)Nc1ccccc1)C(=S)Nc1ccccc1`, the Potency is reported as inconclusive: 20.6 µM [cytotoxic, single point].
In the case of `O=C(c1ccccc1)N1CCN(C(=O)c2ccccc2)CC1`, the Potency is reported as inconclusive: 0.517 µM [rising, full curve, poor fit].
For `N#Cc1c(-n2cccc2)cccc1-n1cccc1`, the Potency was inconclusive: 12.6 µM [cytotoxic, single point].
In the case of `Cc1ccc(-c2nn(C(C)(C)C)c3ncnc(N)c23)cc1`, the Potency is reported as inconclusive: 32.6 µM [cytotoxic, single point].
For `c1csc(-c2nnc(NC3CCCCC3)c3ccccc23)c1`, the Potency was inconclusive: 29.1 µM [cytotoxic, single point].
In the case of `CCn1cc(SCC(=O)N2CCc3ccccc32)c2ccccc21`, the Potency is reported as “inactive”.
For `Cc1nn(Cc2ccccc2)c(C)c1C(=O)OCC(=O)c1cc(C)n(CC(F)(F)F)c1C`, the Potency was inconclusive: 16.4 µM [cytotoxic, partial curve].
In the case of `COCCNC(=O)CN(c1ccc(F)cc1)S(=O)(=O)c1ccc2c(c1)OCCO2`, the Potency is reported as inconclusive: 14.6 µM [cytotoxic, partial curve].
For `CC(=O)Nc1cc(-c2ccc(F)cc2)cn2c(-c3ccc(S(C)(=O)=O)cc3)cnc12`, the Potency was “inactive”.
With `COc1cccc(C(=O)O/N=C/c2ccc(Sc3ccc(C)cc3)nc2)c1` the Potency was inconclusive: 18.4 µM [cytotoxic, single point].
With `COc1ccc(OCc2cc(C(=O)NCC(C)Oc3cccnc3)no2)c(Cl)c1` (configuration not stated) the Potency was inconclusive: 20.6 µM [cytotoxic, single point].
In the case of `CCOC(=O)CC1C(=O)NCCN1S(=O)(=O)c1ccc(F)cc1` (configuration not stated), the Potency is reported as inconclusive: 8.2 µM [rising, partial curve, poor fit].
With `Cc1cc2cc(C(c3nnnn3Cc3ccco3)N3CCCCC3)c(=O)[nH]c2cc1C` (configuration not stated) the Potency was inconclusive: 8.2 µM [cytotoxic, partial curve].
For `C/C(CC(=O)NCc1ccc(Cl)cc1)=N\NC(=O)COc1ccc(C)cc1Br`, the Potency was active: 8.2 µM.
In the case of `CCOC(=O)c1cnn(CCOC(=O)c2ccc(OC)cc2)c1NC(=O)c1ccc(OC)cc1`, the Potency is reported as inconclusive: 10.3 µM [cytotoxic, partial curve, poor fit].
With `Nc1nonc1-n1nnc(C(=O)N/N=C/c2ccc3c(c2)OCO3)c1CSc1ccccc1` the Potency was inconclusive: 8.2 µM [cytotoxic, partial curve].
For `Cc1ccc(Nc2ccncc2S(N)(=O)=O)cc1`, the Potency was “inactive”.
With `Cc1cccc(N2CCN(C(C(=O)NCc3ccccc3)c3ccc(F)cc3)CC2)c1C` (configuration not stated) the Potency was inconclusive: 7.31 µM [cytotoxic, partial curve].
For `CO/N=C(/CNC(=O)c1cccc(Cl)c1)c1ccc(Cl)cc1`, the Potency was active: 23.1 µM.
For `O=C(CSc1nnc(-c2ccccc2)c(-c2ccccc2)n1)NC1CCCC1`, the Potency was inconclusive: 29.1 µM [cytotoxic, single point].
In the case of `CCOc1ccc(C(=O)c2cn(CC(=O)Nc3ccc(F)cc3)c3cc4c(cc3c2=O)OCCO4)cc1`, the Potency is reported as inconclusive: 18.4 µM [rising, single point].
For `CC(=O)Nc1cc(-c2ccc(N)nc2)cn2c(-c3cccc(C(F)(F)F)c3)cnc12`, the Potency was “inactive”.
In the case of `Cc1ccc(C(=O)NNC(=S)NC(=O)c2ccc(Cl)cc2Cl)cc1`, the Potency is reported as inconclusive: 29.1 µM [cytotoxic, single point].
In the case of `COc1ccc(-c2ccc(C(=O)Nc3ccccc3)c3occc23)c(C)c1`, the Potency is reported as inconclusive: 20.6 µM [cytotoxic, partial curve].
For `O=C(N=Nc1c(O)[nH]c2ccc(Br)cc12)c1cc(-c2cccs2)nc2ccccc12`, the Potency was inconclusive: 20.6 µM [cytotoxic, single point].
With `COc1cccc(C(=O)N(Cc2cccnc2)c2nc3c(OC)ccc(C)c3s2)c1OC` the Potency was “inactive”.
For `Cc1c(CCOC(=O)c2cc([N+](=O)[O-])cc([N+](=O)[O-])c2)sc[n+]1CC(=O)c1ccc(Br)cc1`, the Potency was inconclusive: 29.1 µM [cytotoxic, single point].
With `COc1ccccc1OCCSc1nc2ccc([N+](=O)[O-])cc2s1` the Potency was inconclusive: 23.1 µM [cytotoxic, single point].
For `CC1CC(C)CN(C(=O)C2CCN(S(=O)(=O)c3c(Cl)cccc3Cl)CC2)C1` (configuration not stated), the Potency was inconclusive: 6.51 µM [cytotoxic, partial curve].
For `CC(C)c1ccc(NC(=S)NNC(=O)c2cccnc2)cc1`, the Potency was inconclusive: 18.4 µM [rising, single point].
For `CC(=O)NC(=S)Nc1ccccc1C(=O)NC1CCCCC1`, the Potency was “inactive”.
In the case of `CCn1cnc2cc(NCc3ccc(Cl)cc3)ccc21`, the Potency is reported as “inactive”.
With `O=C(c1ccco1)N1CCN(C(=O)C(Cc2ccccc2)NS(=O)(=O)c2cccs2)CC1` (configuration not stated) the Potency was inconclusive: 23.1 µM [cytotoxic, single point].
In the case of `Cc1ccc(-c2nnn(CC(=O)NCCc3ccc4c(c3)OCO4)n2)cc1`, the Potency is reported as inconclusive: 11.6 µM [rising, partial curve, poor fit].
With `CCc1c(C)c(C#N)c2[nH]c3ccccc3n2c1=S` the Potency was active: 7.31 µM.
With `Cc1ccc(S(=O)(=O)N(C)C[C@H]2Oc3cc(Br)ccc3S(=O)(=O)N([C@H](C)CO)C[C@H]2C)cc1` the activity change, negative = cytotoxicity was inconclusive: -44.2% [cytotoxic].
For `Cc1ccccc1C(=O)NCc1nnc(SCC(=O)N2c3ccccc3Sc3ccccc32)n1C`, the Potency was “inactive”.
For `O=C1CCCN2N=C(SCC(=O)Nc3ccc(Cl)cc3)SC2=N1`, the Potency was inconclusive: 6.51 µM [cytotoxic, partial curve, poor fit].
For `CC(=O)OC(C=C(C)C)C/C(C)=C/COc1c2ccoc2cc2oc(=O)ccc12` (configuration not stated), the Potency was “inactive”.
In the case of `COCCN(C(=O)COC(=O)CCSc1ccc(F)cc1)c1c(N)n(Cc2ccccc2)c(=O)[nH]c1=O`, the Potency is reported as “inactive”.
For `CCOc1ccc(-c2nnn(CC(=O)Nc3cc(OC)ccc3OC)n2)cc1OCC`, the Potency was “inactive”.
With `CC(=O)N(C(C)=O)c1nc(-c2ccccc2)cn1/N=C/c1ccccc1` the Potency was inconclusive: 20.6 µM [cytotoxic, partial curve].
With `Cc1ccc(S(=O)(=O)CC(O)COc2ccc(F)cc2Cl)c(C)c1` (configuration not stated) the Potency was inconclusive: 29.1 µM [cytotoxic, partial curve, poor fit].
For `CCOc1ccccc1NS(=O)(=O)c1ccc2c(c1)CC(C)N2C(=O)C1CCC1` (configuration not stated), the activity change, negative = cytotoxicity was inconclusive: -36.5% [cytotoxic].
With `O=C(/C=C/c1ccccc1)CCN1CCCCC1` the Potency was active: 25.9 µM.
With `O=C(CN1CCCN(Cc2ccc(F)cc2Cl)C1=O)NCc1ccccc1` the Potency was “inactive”.
In the case of `COc1cc(C#Cc2c(-c3cncn3C)n(C)c3ccc(Br)cc23)cc(OC)c1`, the Potency is reported as inconclusive: 20.6 µM [cytotoxic, single point].
In the case of `CC(=O)N1CCN(C(=O)/C(C#N)=C/c2ccc3c(c2)OCO3)CC1`, the Potency is reported as “inactive”.
For `N#CC1=C(N)N2C(=C(C#N)C13CCCC3)Nc1ccccc12`, the Potency was inconclusive: 16.4 µM [cytotoxic, single point].
With `Cn1nc(C(=O)NCc2cccc(Cl)c2)c2c1-c1ccccc1S(=O)(=O)C2` the Potency was inconclusive: 13 µM [cytotoxic, partial curve, poor fit].
In the case of `N=C1S/C(=C\c2cn[nH]c2-c2ccc(F)cc2)C(=O)N1c1ccccc1F`, the Potency is reported as inconclusive: 13 µM [rising, partial curve, poor fit].
In the case of `O=C(CN1CCN(c2ccc(Cl)cc2)CC1)Nc1cccc(F)c1`, the Potency is reported as inconclusive: 23.1 µM [cytotoxic, single point].
With `Cc1ccn2c(=O)nc(SCC(=O)NC3CCCCC3)nc2c1` the Potency was inconclusive: 20.6 µM [cytotoxic, single point].
For `CCOC(=O)c1[nH]c(C)c(/C(O)=C2\C(=O)C(=O)N(CCCN(C)C)C2c2cccnc2)c1C` (configuration not stated), the Potency was inconclusive: 25.9 µM [rising, single point].
With `NC(=O)C1CCN(c2ncnc3c2c(-c2ccccc2)cn3-c2ccccc2)CC1` the Potency was inconclusive: 11.6 µM [cytotoxic, single point].
With `CCc1ccc(NC2=NCC(c3ccccc3)S2)cc1` (configuration not stated) the Potency was inconclusive: 23.1 µM [cytotoxic, single point].
For `NC(=S)Nc1cc(Cl)cc(Cl)c1`, the Potency was “inactive”.
In the case of `CCC1CCCCN1Cc1ccc(OC)c(OC)c1` (configuration not stated), the Potency is reported as inconclusive: 16.4 µM [cytotoxic, single point].
In the case of `COc1cc(CN2CCc3nc(N4CCN(c5ncccn5)CC4)ncc3C2)cc(OC)c1OC`, the Potency is reported as active: 6.51 µM.
In the case of `CCOc1ccc(NC(=S)NC(=O)c2ccco2)cc1`, the Potency is reported as “inactive”.
In the case of `CC[C@H](C)[C@H](NC(=O)OCc1ccccc1)C(=O)OCC(=O)N(C)CC(=O)Nc1ccccc1Cl`, the Potency is reported as inconclusive: 6.51 µM [cytotoxic, full curve].
In the case of `Cc1ccccc1Nc1nc(N)nc(CN2CCN(c3ccccn3)CC2)n1`, the Potency is reported as inconclusive: 20.6 µM [cytotoxic, partial curve, poor fit].
